Measurements taken from patent US10039789B2, “Compositions and methods for cell transplantation” (UNIVERSITÉ CATHOLIQUE DE LOUVAIN, priority 2011, dated 2018).
Where a name gives a salt, the structure may show the parent alone. At least one compound was matched to its structure with a doubt left.

System: hALPCs
Assay: ROTEM thromboelastometry, modulation of procoagulant activity (PCA) of hALPCs in whole blood
Type: cell-based, human
Settings: dose increased up to 5× (thrombin inhibitors 2× or 5×), whole blood (FIGS. 23-25)

CO[C@H]1O[C@H](COS(=O)(=O)O)[C@@H](O[C@@H]2O[C@@H](C(=O)O)[C@@H](O[C@H]3O[C@H](COS(=O)(=O)O)[C@@H](O[C@@H]4O[C@H](C(=O)O)[C@@H](O[C@H]5O[C@H](COS(=O)(=O)O)[C@@H](O)[C@H](O)[C@H]5NS(=O)(=O)O)[C@H](O)[C@H]4O)[C@H](OS(=O)(=O)O)[C@H]3NS(=O)(=O)O)[C@H](O)[C@H]2OS(=O)(=O)O)[C@H](O)[C@H]1NS(=O)(=O)O [fondaparinux, 2-deoxy-6-O-sulfo-2-(sulfoamino)-α-D-glucopyranosyl-(1→4)-O-β-D-glucopyranuronosyl-(1→4)-O-2-deoxy-3,6-di-O-sulfo-2-(sulfoamino)-α-D-glucopyranosyl-(1→4)-O-2-O-sulfo-α-L-idopyranouronosyl-(1→4)-O-methyl-2-deoxy-6-O-sulfo-2-(sulfoamino)-α-D-glucopyranoside, decasodium salt]
Control of hALPCs PCA at increased dose: not fully inhibited
